Values of other authors in patent US10947260B2, “Phosphinolactone derivatives and pharmaceutical uses thereof” (INSTITUT NATIONAL DE LA SANTE ET DE LA RECHERCHE MEDICALE …, priority 2016, dated 2021).

Test system: mice treated with Aβ25-35
Details: mouse, in vivo, ip; cited from earlier work

Question: Which “active dose of reference molecules in this model” value does the source give for `COc1cc2c(cc1OC)C(=O)C(CC1CCN(Cc3ccccc3)CC1)C2` (stereo not shown) [donepezil] here?
Answer: 0.5 mg/kg
